According to patent publication US20030166192A1:
No constants are given. Whether binding was seen depends on the method and setting. Binding seen in cells or lysates may run through a third protein. Some binding calls cover weakened binding; strength is not graded here. Where a sequence is shown, tags or fusion partners need not be part of it. Values belong to the binder of their own block, whether it stands above or below them.

The chains behind the UniProt entries cited, without tags or fusion partners.
UniProt O43353: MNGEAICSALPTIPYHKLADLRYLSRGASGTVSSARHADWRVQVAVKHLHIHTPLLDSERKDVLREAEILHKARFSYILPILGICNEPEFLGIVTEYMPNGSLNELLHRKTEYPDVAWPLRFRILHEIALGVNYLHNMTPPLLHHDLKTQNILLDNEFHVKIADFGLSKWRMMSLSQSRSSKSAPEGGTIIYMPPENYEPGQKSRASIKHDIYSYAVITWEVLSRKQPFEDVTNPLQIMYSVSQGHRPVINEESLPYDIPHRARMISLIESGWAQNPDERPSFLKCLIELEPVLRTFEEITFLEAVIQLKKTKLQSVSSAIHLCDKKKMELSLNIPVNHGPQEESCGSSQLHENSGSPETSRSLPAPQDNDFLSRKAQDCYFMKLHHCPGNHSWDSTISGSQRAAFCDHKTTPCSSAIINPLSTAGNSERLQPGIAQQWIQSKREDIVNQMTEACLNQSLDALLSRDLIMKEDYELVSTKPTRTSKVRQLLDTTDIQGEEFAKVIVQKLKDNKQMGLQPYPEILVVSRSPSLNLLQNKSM

Experiments:
[1] = molecular target: T1, T7-tagged Pseudo-ICE (human) (UniProt Q5EG05); test: co-immunoprecipitation from cotransfected 293 T cells: IP anti-Flag, western blot anti-T7 [panel C]
T1 sequence: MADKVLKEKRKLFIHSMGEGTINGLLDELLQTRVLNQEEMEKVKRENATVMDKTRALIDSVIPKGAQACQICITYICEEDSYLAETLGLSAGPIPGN

[2] = molecular target: T2, T7-tagged ICE-Like (human) (UniProt P57730); test: co-immunoprecipitation from 293 T cells, anti-Flag precipitation, anti-T7 western blot
T2 sequence: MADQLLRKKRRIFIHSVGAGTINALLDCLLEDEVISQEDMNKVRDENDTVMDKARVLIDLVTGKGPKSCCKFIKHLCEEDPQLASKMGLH

[3] = molecular target: T3, ICE-Like (human) (UniProt P57730); test: GST pull-down, 35S-labelled in vitro translated protein, autoradiography
T3 sequence (chain, 35S-methionine label in the in vitro assay): T2 sequence

[4] = molecular target: T4, Pseudo-ICE (human) (UniProt Q5EG05); test: as above
T4 sequence (chain, 35S-methionine label in the in vitro assay): T1 sequence

[5] = molecular target: T2, T7-tagged ICE-Like (human); test: co-immunoprecipitation from cotransfected 293 T cells: IP anti-Flag, western blot anti-T7 [panel C]
[6] = molecular target: T1, T7-tagged Pseudo-ICE (human); test: co-immunoprecipitation from 293 T cells, anti-Flag precipitation, anti-T7 western blot
[7] = molecular target: RICK (UniProt O43353); test: GST pull-down of 35S-labelled RICK (data not shown)
[8] = molecular target: Flag-tagged RICK (UniProt O43353); test: co-immunoprecipitation from 293 T cells cotransfected with Flag-RICK, T7-Casp1C/A and rising amounts of T7-Pseudo-ICE: IP anti-Flag, western blot anti-T7 [panel B]
[9] = molecular target: Flag-tagged RICK (UniProt O43353); test: co-immunoprecipitation from 293 T cells, anti-Flag precipitation, anti-T7 western blot

- binding [1]: binds
- binding [2]: binds
B1: Flag-tagged ICE-Like (protein, not shown: small tags and cut ends)
chain: T2 sequence

- binding [3]: binds
- binding [4]: binds
B2: GST-conjugated ICE-Like (protein, not shown: a dimerising Fc or GST)
chain: T2 sequence

- binding [5]: binds
- binding [6]: binds
B3: Flag-tagged Pseudo-ICE (protein, not shown: small tags and cut ends)
chain: T1 sequence

- binding [3]: binds
- binding [4]: binds
- binding [7]: binds
B4: GST-conjugated Pseudo-ICE (protein, not shown: a dimerising Fc or GST)
chain: T1 sequence

- binding [8]: binds
- binding [9]: binds
B5: T7-tagged Pseudo-ICE (protein, not shown: small tags and cut ends)
chain: T1 sequence
